# Measurements from the supplement of paper PMC5949888.
# Most values lie at the floor of the assay. Slopes are relative: functional sequences can read slightly below zero.
# Tested on: Saccharomyces cerevisiae PS128 hsf1 delta, HSF1(1-493) fusion
# Experiment: growth estimate (transactivation domain function in HSF1 fusion, heat-shock survival) (a.u. (slope of normalised read count over time)); higher = stronger growth at 37°C, i.e. more transactivation activity
# Conditions: library: random library
# Method: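 Random 60-nt DNA library encoding peptides of up to 20 aa, fused to the C-terminus of yeast HSF1 residues 1-493 (C-terminal TAD deleted) and expressed from the native HSF1 promoter on a CEN plasmid in hsf1-deleted S. cerevisiae PS128. Cells were selected at 37°C on -trp 5-FOA plates for 0, 2, 4, 6 and 8 days and amplicons were sequenced. Growth estimate is the slope of a robust linear fit of total-sum-normalised read counts (normalised to the first time point) over time, using at least 2 replicates. Sequences are classed functional (TAD activity) above a threshold of -0.13, set from stop-codon control sequences.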
row,Substance,growth estimate
1,WSTRLQGVCLHKNS,< -0.25
2,RPML,< -0.25
3,HTTWAYVLCL,-0.25
4,PWGIS,< -0.25
5,SGGGSTGLRYQGNTQDRSS,< -0.25
6,PESAAACDGAI,< -0.25
7,NNLDFIQGDGPRSLNHT,< -0.25
8,GSRNSIS,< -0.25
9,ASSGDWVDAYSGLARGPSQG,< -0.25
10,MGSATIGRLRGFS,< -0.25
11,LDPLAW,< -0.25
12,HGVRAVRKSAAVKFGGIIRR,< -0.25
13,AGIQ,-0.243
14,LHTTGTAGRQSEQARTAWTS,< -0.25
15,ESGYLTRENSVVK,< -0.25
16,SNRPDGRVFYKRRKAF,-0.248
17,LRPCAMGGTNTSSQLPVSRG,< -0.25
18,DASWSP,< -0.25
19,CQGRVGGALYFCLVARPCL,< -0.25
20,VWGKGPVKNAALIDIWGRGQ,-0.205
21,LGYVTRTAGTRSPG,-0.246
22,DHIARGEAASLRARTSAASE,< -0.25
23,VFGVRPRPWGLVPQRVVVPA,< -0.25
24,SGPGCPRYFSVQSTDD,< -0.25

row,Substance,growth estimate
1,ASLVNEVGFFGFLPDHHMWV,2.03
2,ETGFGGVQ,< -0.25
3,RLQAKRHIAYILQQVKFGRS,-0.248
4,DERRRW,< -0.25
5,LNVMRFTSFSWQPC,< -0.25
6,LLAYKQGDLRVAYRVHAT,< -0.25
7,TRAGQFVGRSGLRHRGLPVL,< -0.25
8,VSEA,< -0.25
9,FLPRQQ,< -0.25
10,PVGQMHRILTSGPGCLYAVS,< -0.25
11,GTSDFKMPDANRASPYAGIT,< -0.25
12,TSRRCVLGLECSRRIPRVRS,< -0.25
13,SYP,< -0.25
14,IRFDARYKGALDDIIHHLSE,< -0.25
15,EDVLVSCRRSRSKDGGRPVY,< -0.25
16,EHPIRIVCASILFRSRVTPT,< -0.25
17,TGLTQIVGCLYRVWFISR,< -0.25
18,SWYICCPYHVWCALDRTLAG,< -0.25
19,GWKVRALFFHTNAKS,< -0.25
20,GCTALPRRPPRRGIKFSQWR,< -0.25
21,TFQSRRLVLTNGSS,< -0.25
22,MPPVME,< -0.25
23,ETDFRYRLLAGDRL,< -0.25
24,ALCVPKINDMRKGCPGSASD,< -0.25

row,Substance,growth estimate
1,PLCPSVGKAFFVVRS,< -0.25
2,PATECK,< -0.25
3,RSKIDSEGYVTFLLSQGPWN,< -0.25
4,SKRFEPISCLLRVWTSKRDG,< -0.25
5,WFPLTNSDANTETFLHLNVT,< -0.25
6,FPGEEDVLEPGATDACCQTR,< -0.25
7,TQRHGNHGHVYVVN,< -0.25
8,NRSEPPWFYQCKSSAHMRQV,-0.237
9,QQCPGGS,< -0.25
10,AVEQGTSFSSGIALRNLGRR,< -0.25
11,PLLGGRIGDLNGQRCDTHQT,< -0.25
12,PLIHFSDQGYGSVRSSAKFA,< -0.25
13,RGMVQHLGGEVGKQVSRRDV,< -0.25
14,AGRPLITRQNFLNN,-0.243
15,SLET,< -0.25
16,KRSPVR,< -0.25
17,LLSSADV,-0.228
18,SFLKPVTHTKRKLFI,< -0.25
19,DSLGPLGYLRERTNIVGK,< -0.25
20,HCGFIKGSIVTHLGPSLKQR,-0.246
21,NLLYRARVVAGIRLGRVSLG,< -0.25
22,LTLPQREAGSVLDLDHRYPQ,< -0.25
23,SKA,< -0.25
24,SVGMPNITSVGGFDQGIGFP,< -0.25

# Reformatted: results already given.
row | Substance | growth estimate
3 | RLQAKRHIAYILQQVKFGRS | -0.248
6 | LLAYKQGDLRVAYRVHAT | < -0.25

# Next records.

row,Substance,growth estimate
1,SPDI,< -0.25
2,KGKDECP,-0.243
3,LNKEGYTLPHPS,-0.243
4,VSKSPKLVLLREL,< -0.25
5,VVVSQCTCPRPRGPEIESHP,< -0.25
6,AAQFGYLRKAGSDESTGFSH,< -0.25
7,QIGHPGKLTRH,< -0.25
8,CCRNRGLSETSSADCTECRP,< -0.25
9,MRQNDIRGPFVVRPVGIPYR,< -0.25
10,AGLSRPFECGDLGMVRIVPI,< -0.25
11,TSLSV,< -0.25
12,RRLSVNQRETPVRIIG,< -0.25
13,PGMESRNCTALICCIDVHRG,< -0.25
14,TSRQAPRFAPH,< -0.25
15,ASAKLVSLHNTSTVT,< -0.25
16,PTTTSQENKARHHRYEAPYE,< -0.25
17,SIRYGVILTNRN,< -0.25
18,DFL,< -0.25
19,LLWRCVVVGIVVTIVPLGAG,< -0.25
20,SWD,< -0.25
21,SGTEGAPLVVGGSVSGSQRD,< -0.25
22,LTTARSDPEALA,< -0.25
23,ARCWGAVASGGMSDQLRVVC,< -0.25
